{
  "source": "patent US20030130272A1",
  "about": "“Anthracene derivatives as anti-cancer agents” (priority 1999, published 2003)",
  "origin": "cited, not measured here",
  "key": {"[1]": {"settings": "in man; cited from earlier work"}, "[2]": {"settings": "in rodents; cited from earlier work"}},
  "note": "Like-named read-outs stand apart in the source and are kept apart here.",
  "data": [
    {"smiles": "COc1cccc2c1C(=O)c1c(O)c3c(c(O)c1C2=O)C[C@@](O)(C(=O)CO)C[C@@H]3O[C@H]1C[C@H](N)[C@H](O)[C@H](C)O1", "note": "[doxorubicin]", "values": [
      {"measurement": "maximum tolerated dose", "setting": "[1]", "value": "1 to 2", "unit": "mg/kg"},
      {"measurement": "maximum tolerated dose", "setting": "[2]", "value": 5, "unit": "mg/kg"}
    ]}
  ]
}
